Experiment [1] concerns the target T1, recombinant human PEDF protein (pigment epithelium derived factor) (human) (UniProt P36955).
T1 sequence (looked up): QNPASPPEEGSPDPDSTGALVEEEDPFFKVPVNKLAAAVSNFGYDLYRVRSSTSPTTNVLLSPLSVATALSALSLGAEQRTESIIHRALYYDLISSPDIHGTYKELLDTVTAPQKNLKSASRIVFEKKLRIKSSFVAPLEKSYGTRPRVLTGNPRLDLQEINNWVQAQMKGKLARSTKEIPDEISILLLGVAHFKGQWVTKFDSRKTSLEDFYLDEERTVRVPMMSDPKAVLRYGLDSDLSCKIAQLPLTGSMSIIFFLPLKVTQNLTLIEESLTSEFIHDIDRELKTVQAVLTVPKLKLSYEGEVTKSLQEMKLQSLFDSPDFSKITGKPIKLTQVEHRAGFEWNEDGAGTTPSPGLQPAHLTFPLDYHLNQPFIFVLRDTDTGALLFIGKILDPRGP
Nature of the experiment: His-tag pull-down, solid-phase binding, ultrafiltration and SPR.

The target of experiment [2] is T1, recombinant human PEDF protein (pigment epithelium derived factor) (human). The experiment is described as follows: purified His-tagged p12 with purified PEDF (assay not given).

Results are given in words; binding and its absence hold for the method and conditions named. Binding calls can cover weak binding; strength is not graded here.

Turning to “p12N (PEDF-binding fragment p12 of human R1 with N-terminal 6xHis tag, from pEXP-12N) (receptor)”, the binding result in experiment [1] and in experiment [2] was “binds” each time.

Source of the values: patent publication US20090162363A1 (published 2009).
